Laboratory results taken from paper PMC5039532 (Marine Drugs, 2016).

test: general procedure: peptide synthesis; 2-chlorotrityl chloride (CTC) resin (1.05 mmol/g); DEPBT/DIPEA; PyBOP/DIPEA for macrocyclisation; details: cyclisation step

Point of comparison: cyclo(Phe-D-Leu-Leu-D-N-Me-Leu-Leu), cyclisation yield 53.3%. Against it:
- (cyclo(Phe-Leu-D-N-Me-Leu-D-Leu-D-Leu) — lower, 51.7%
- cyclo(D-Phe-D-Leu-D-Leu-N-Me-Leu-D-Leu) — higher, 55.5%
- cyclo(D-Phe-D-Leu-Leu-D-N-Me-Leu-Leu) — higher, 56.2%
- cyclo(D-Phe-D-Leu-Leu-N-Me-Leu-D-Leu) — lower, 50.4%
- cyclo(D-Phe-D-Leu-N-Me-Leu-D-Leu-N-Me-Leu) — higher, 53.9%
- cyclo(D-Phe-D-N-Me-Leu-Leu-N-Me-Leu-Leu) — lower, 45.5%
- cyclo(D-Phe-Leu-D-Leu-D-Leu-D-N-Me-Leu) — lower, 50.0%
- cyclo(D-Phe-Leu-D-Leu-Leu-N-Me-Leu) — lower, 48.5%
- cyclo(D-Phe-Leu-D-Leu-N-Me-Leu-Leu) — lower, 53.1%
- cyclo(D-Phe-Leu-D-N-Me-Leu-Leu-D-Leu) — higher, 53.8%
- cyclo(D-Phe-Leu-Leu-D-Leu-N-Me-Leu) — higher, 65.4%
- cyclo(D-Phe-Leu-Leu-D-N-Me-Leu-Leu) — higher, 56.4%
- cyclo(D-Phe-Leu-Leu-N-Me-Leu-D-Leu) — higher, 60.2%
- cyclo(D-Phe-Leu-N-Me-Leu-D-Leu-D-Leu) — higher, 61.5%
- cyclo(D-Phe-N-Me-Leu-Leu-Leu-D-N-Me-Leu) — lower, 45.1%
- cyclo(Phe-D-Leu-D-Leu-D-Leu-N-Me-Leu) — higher, 55.1%
- cyclo(Phe-D-Leu-Leu-N-Me-Leu-Leu) — lower, 44.8%
- cyclo(Phe-D-Leu-N-Me-Leu-D-Leu-D-Leu) — higher, 57.3%
- cyclo(Phe-Leu-D-Leu-N-Me-Leu-Leu) — lower, 52.2%
- cyclo(Phe-Leu-Leu-D-Leu-N-Me-Leu) — lower, 46.1%
- cyclo(Phe-Leu-Leu-D-N-Me-Leu-Leu) — lower, 49.2%
- cyclo(Phe-Leu-Leu-Leu-D-N-Me-Leu) — higher, 66.4%
- cyclo(Phe-Leu-Leu-N-Me-Leu-D-Leu) — higher, 64.5%
